Here are results for one molecule from patent US20150368299A1.

For this test, the target named is sAPPα (Sigma) (UniProt P05067). Nature of the test: condition: relation >1000 against Aβ(20-42) globulomer; first dot 1 pmol; dot blot with densitometry, antibody 0.2 µg/ml.

These are yes or no findings as the source states them, for the method shown.

B1: murine monoclonal anti-Aβ(20-42) globulomer antibody m4C9 (antibody, V domains shown)
VH: QVQLQQPGAELVKPGASVKLSCKAPGYTFTSYWMHWVKQRPGQGLEWIGRIDPKSGDTKYTEKFKSKATLTVDKPSSTAYMQLSSLTSEDSAVYYCTTMSKLSGTHAWFAYWGQGTLVTVSA
VL: DIKMTQSPSSMYASLGERVTITCKASQDINSYLTWFQQKPGKSPKTLIYRANRLVDGVPSRFSGSGSGQDYSLTISSLEYEDMGIYYCLQYDEFPLTFGAGTKLELK
B1: the binding entry is on record as “no binding”.
